Data taken from patent US20190177415A1.
Results are given in words; binding and its absence hold for the method and conditions named.

Chains of the proteins cited; added tags and fusions are not shown. Lines headed by an entry give the natural chain unless they say otherwise; changes in a name come on top.
UniProt Q9H7M9: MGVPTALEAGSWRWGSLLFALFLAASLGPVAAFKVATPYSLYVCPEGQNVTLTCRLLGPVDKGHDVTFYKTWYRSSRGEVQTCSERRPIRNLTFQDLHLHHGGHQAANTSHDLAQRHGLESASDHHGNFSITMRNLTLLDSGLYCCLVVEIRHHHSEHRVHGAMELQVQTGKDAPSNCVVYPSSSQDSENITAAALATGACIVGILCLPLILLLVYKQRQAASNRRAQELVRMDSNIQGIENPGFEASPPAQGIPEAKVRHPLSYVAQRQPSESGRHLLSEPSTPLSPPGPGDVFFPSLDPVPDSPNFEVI

Tests used:
Experiment in all cases: condition: MFI <20-fold over isotype control at 2 ug/ml; flow cytometry, transfected 293t cells
[1] = biological target: chimeric C10orf54: human with mouse loop (construct CC9) (human/mouse chimera) (UniProt Q9H7M9)
[2] = biological target: T1, chimeric C10orf54: mouse with human loop (construct CC10) (human/mouse chimera)
T1 sequence: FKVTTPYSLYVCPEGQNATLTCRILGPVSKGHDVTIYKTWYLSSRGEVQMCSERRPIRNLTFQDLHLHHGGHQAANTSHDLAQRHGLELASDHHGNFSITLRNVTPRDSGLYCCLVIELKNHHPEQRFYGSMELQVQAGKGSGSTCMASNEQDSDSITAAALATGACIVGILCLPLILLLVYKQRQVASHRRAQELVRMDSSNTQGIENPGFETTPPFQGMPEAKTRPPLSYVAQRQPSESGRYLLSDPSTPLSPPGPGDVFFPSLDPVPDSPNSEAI

[3] = biological target: T2, full length mouse C10orf54 (construct CC2) (mouse) (UniProt Q9D659)
T2 sequence: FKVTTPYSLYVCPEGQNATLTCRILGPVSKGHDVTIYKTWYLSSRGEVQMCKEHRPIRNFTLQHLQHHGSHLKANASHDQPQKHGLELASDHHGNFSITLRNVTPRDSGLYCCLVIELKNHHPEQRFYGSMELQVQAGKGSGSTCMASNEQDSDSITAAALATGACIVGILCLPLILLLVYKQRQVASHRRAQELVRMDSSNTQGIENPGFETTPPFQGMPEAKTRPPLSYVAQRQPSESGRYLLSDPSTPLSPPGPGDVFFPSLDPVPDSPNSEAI

[4] = biological target: T3, chimeric C10orf54: mouse IgV with human STALK (construct CC6) (human/mouse chimera)
T3 sequence: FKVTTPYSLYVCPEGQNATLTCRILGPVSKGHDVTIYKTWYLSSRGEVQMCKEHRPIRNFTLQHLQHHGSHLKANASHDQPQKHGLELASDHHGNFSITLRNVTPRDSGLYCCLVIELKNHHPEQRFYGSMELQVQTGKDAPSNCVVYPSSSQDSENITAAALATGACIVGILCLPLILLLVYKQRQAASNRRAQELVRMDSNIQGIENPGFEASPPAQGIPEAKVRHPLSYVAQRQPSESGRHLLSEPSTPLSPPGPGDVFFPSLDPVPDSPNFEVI

[5] = biological target: chimeric C10orf54: first half of IgV human and remainder (including loop) mouse (construct CC7) (human/mouse chimera)

Measured: binding

B1: murine monoclonal antibody 76E1 (antibody, V domains shown)
VH: EVQLLQSGPELEKPGASVKISCKASGYSFTGYNMNWVKQSNGKSLEWIGNIDPYYDYTSYNLKFKDKATLTVDKSSSTAYMQLKSLTSEDSAVYYCATSTMITPFDYWGQGTTLTVSS
VL: DVLMTQTPLSLPVSLGDQASISCRSSQSIVHSNGNTYLEWYLQKPGQSPKLLIYKVSNRFSGVPDRFSGSGSGTDFTLKINRVEAEDLGVYYCFQGSHVPWTFGGGTKLEIK
no binding: all assays above

B2: murine monoclonal antibody 33A (antibody, V domains shown)
VH: QVQLQQSGAELMKPGASVKISCKATGYTFSSYWIEWVKQRPGHGLEWIGEILPGSGSTSYNEKFKGKATFTADTSSNTAYMQLSGLTSEDSAVYYCARWLLYYYAMVYWGQGTSVTVSS
VL: DVLMTQTPLSLPVSLGDQASISCRSSQSIVHSNGNTYLEWYLQKPGQSPKLLIYKVSNRFSGVPDRFSGSGSGTDFTLKISRVEAEDLGVYYCFQGSHVPYTFGGGTKLEIK
not listed: [2]
no binding: all other assays above

B3: murine monoclonal antibody 321D (antibody, V domains shown)
VH: QVQLQQSGAELMKPGAAVKISCKATGYTFSSHWIEWVKQRPGHGLEWIGEILPGSGSTDYNEKFKGKATFTADTSSNTAYMQLSSLTSEDSAVYYCARWLLYYYAMDYWGQGTSVTVSS
VL: DVLMTQTPLSLPVSLGDQASISCRSSQSIVHSNGNTYLEWYLQKPGQSPKLLIYKVSNRFSGVPDRFSGSGSGTDFTLKITRVEAEDLGVYYCFQGSHVPFTFGGGTKLEIK
not listed: [2]
no binding: all other assays above

B4: murine monoclonal antibody 353A (antibody, V domains shown)
VH: EVKLLESGGGLVQPGGSLKLSCAASGFDFSRYWMNWVRQAPGKGLEWIGEINPDSSTINYTPSLKDKFIISRDNAKNTLYLQMSKVRYEDTALYYCARPGEIYYYGSYWFAYWGQGTLVTVSA
VL: DIVLTQSPASLAVSLGQRATISCRASESVEYYGTSLMQWFQQKPGQPPKLLIYAASNVESRVPARFSGSGSGTDFSLNIHPVEEDDIAMYFCQQSRKDPWTFGGGTKLEIK
not listed: [1]
no binding: all other assays above

B5: murine monoclonal antibody 51A (antibody, V domains shown)
VH: QVQLQQSGAELMKPGASVKISCKATGYTFSRYWIEWVKQRPGHGLEWIGEILPGSGSTNYNEKFKGKATFTADTSSNTAYMQLSSLTSEDSAVYYCASEEVYDGYPWFGYWGQGTLVTVSA
VL: QIVLSQSPAILSASPGEKVTMTCRASSSLSYMHWYQQRPGSSPKPWIYATSNLASGVPARFSGSGSGTSYSLTISRVEAEDAATYYCQQWSSNPYTFGGGTKLEIK
no binding: [3] | [5]

B6: murine monoclonal antibody 141A (antibody, V domains shown)
VH: QVQLQQSGAELMKPGASVKISCKATGYTFSRYWIEWVKQRPGHGLEWIGEILPGSGSTNYNEKFKGKATFTADTSSNTAYMQLSSLTSEDSAVYYCAGEEVYDGYPWFGYWGQGTLVTVSA
VL: QIVLSQSPAILSASPGEKVTMTCRASSSLSYMHWYQQKPGSSPKPWIYATSNLASGVPARFSGSGSGTSYSLTISRVEAEDAATYYCQQWSSNPYTFGGGTKLEIK
not listed: [1]
no binding: all other assays above

B7: murine monoclonal antibody 5B (antibody, V domains shown)
VH: QVQLQQSGAELVRPGVSVKISCKGSGYTFTDYGMHWVKQSHAKSLEWIGIIDTYYGDATYNQKFKGKATMTVDKSSSTAYMELARLTSEDSAIYYCARRAGNAMDYWGQGTSVTVSS
VL: NIVMTQTPKFLLVSAGDRVTITCKASQSVSNDVAWYQQKPGQSPKLLIYYASNRYTGVPDRFTGSGYGTDFTFTISTVQAEDLAVYFCQQDYSSPRTFGGGTKLEIK
not listed: [2]
no binding: all other assays above

B8: murine monoclonal antibody 208A (antibody, V domains shown)
VH: QVQLQQSGAELVRPGVSVKISCKGSGYTFTDYGMHWVKQSHAKSLEWIGVIDTYYGDAGYNQKFKGKATMTVDKSSSTAYMELARLTSEDSAIYYCARRAGNAMDYWGQGTSVTVSS
VL: SIVMTQTPKFLLVSAGDRVTITCKASQSVSNDVAWYQQKPGQSPKLLIYYASNRYTGVPDRFTGSGYGTDFTFTISTVQAEDLAVYFCQQDYSSPRTFGGGTKLEIK
not listed: [2]
no binding: all other assays above

B9: murine monoclonal antibody 146C (antibody, V domains shown)
VH: QVQLQQSGAELVRPGVSVKISCKGSGYTFTDYGMHWVKQSHAKSLEWIGLIDTYYGDATYNHKFKGKATMTVDKSSRTAYMELARLTSEDSAIYYCARRAGNAMDYWGQGTSVTASS
VL: NIAMTQTPKFLLVSAGDRVTITCKASQSVSNDIAWYQQKPGQSPRLLIYYASNRYTGVPDRFTGSGYGTDFTFTISTVQAEDLAVYFCQQDYSSPRTFGGGTKLEIK
not listed: [2]
no binding: all other assays above

B10: murine monoclonal antibody 128A (antibody, V domains shown)
VH: QVQLQQSGAELVRPGVSVKISCKGSGYTFTDYGMHWVKQSHAKSLEWIGLIDTYYGDATYNHKFKGKATMTVDKSSRTAYMELARLTSEDSAIYYCARRAGNAMDYWGQGTSVTASS
VL: NIAMTQTPKFLLVSAGDRVTITCKASQSVSNDIAWYQQKPGQSPRLLIYYASNRYTGVPDRFTGSGYGTDFTFTISTVQAEDLAVYFCQQDYSSPRTFGGGTKLEIK
not listed: [2]
no binding: all other assays above

B11: murine monoclonal antibody 46A (antibody, V domains shown)
VH: QVQLQQAGGELVRPGVSVKISCKGSGYTFTDYGMHWVKQSHAKSLEWIGIINTYYGDATYNQKFKGKATMTVDKSSSTAYMELARLTSEDSAIYYCARRAGTAMDYWGQGTSVTVSS
VL: SIVMTQTPKFLLVSAGDRVTITCKASQSVSNDVAWYQQKPGQSPKLLIYYASNRYTGVPDRFTGSGYGTDFTFTISTVQAEDLAVYFCQQDYGSPRTFGGGTKLEIK
no binding: [1] | [4]

B12: murine monoclonal antibody 215A (antibody, V domains shown)
VH: EVQLQQSGPELVKPGASMKISCKASGFSFTGYTMNWVKQSHGKNLEWIGLISPYNGGTSYNQKFKGKATLTVDKSSSTAYMELLSLTSEDSAVYYCARRAYGYAMDYWGQGTSVTVSS
VL: QIVLTQSPAIMSASPGEKVTMTCSASSSVSYMFWYQQKPGSSPRLLIYDTSNLASGVPLRFSGSGSGTSYSLTISRMEAEDAATYYCQQWSSYPFTFGSGTKLEIK
no binding: all assays above

B13: murine monoclonal antibody 26A (antibody, V domains shown)
VH: EVQLQQSGPELVKPGASMKISCKASGFSFTGYTMNWVKQSHVKNLEWIGLISPYNGGTSYNQKFKGKATLTVDKSSSTAYMELLSLTSEDSAVYYCARRAYGYAMDYWGQGTSVTVSS
VL: QIVLTQSPAIMSASPGEKVTMTCSASSSVSYMYWYQQKPGSSPRLLIYDTSNLASGVPLRFSGSGSGTSYSLTISRMEAEDAATYYCQQWSSYPFTFGSGTKLEIK
not listed: [2]
no binding: all other assays above
